Measured values: the supplement of paper PMC12823440, “Inhibitors supercharge kinase turnover through native proteolytic circuits” (Nature, 2025)
Structures can show the parent of a compound that is named as a salt. The list shows a part of the results. The calls rarely recur for the same compound in another form.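 In K562 cells expressing nanoluciferase-fused kinases, luminescence was recorded at 4 h intervals between 2 and 18 h, normalized as percent of control with DMSO at 100% and a positive control at 0%. A significant (2 sigma) signal drop marks a time point as decreased. The authors' rule for a hit is not shown and takes in more than the number of time points.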

Protein sequences, listed by entry. Tags and fused reporters are not part of them. Lines headed by an entry give the natural chain unless they say otherwise; changes in a name come on top.
UniProt Q9BRS2: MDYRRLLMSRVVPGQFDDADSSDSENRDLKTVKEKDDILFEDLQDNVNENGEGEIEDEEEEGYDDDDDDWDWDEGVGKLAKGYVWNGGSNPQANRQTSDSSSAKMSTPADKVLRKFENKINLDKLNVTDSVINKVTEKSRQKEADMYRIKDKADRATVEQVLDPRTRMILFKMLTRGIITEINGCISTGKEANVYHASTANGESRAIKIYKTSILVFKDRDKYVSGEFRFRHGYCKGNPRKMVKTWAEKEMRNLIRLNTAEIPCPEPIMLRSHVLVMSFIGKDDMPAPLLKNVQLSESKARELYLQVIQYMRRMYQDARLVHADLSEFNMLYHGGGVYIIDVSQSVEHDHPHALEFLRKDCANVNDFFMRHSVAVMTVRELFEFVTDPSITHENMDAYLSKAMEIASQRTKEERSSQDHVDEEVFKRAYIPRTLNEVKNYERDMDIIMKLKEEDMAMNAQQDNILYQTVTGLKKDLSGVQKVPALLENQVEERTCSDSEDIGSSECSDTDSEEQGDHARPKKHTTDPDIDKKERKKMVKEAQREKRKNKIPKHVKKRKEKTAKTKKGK
UniProt Q13546: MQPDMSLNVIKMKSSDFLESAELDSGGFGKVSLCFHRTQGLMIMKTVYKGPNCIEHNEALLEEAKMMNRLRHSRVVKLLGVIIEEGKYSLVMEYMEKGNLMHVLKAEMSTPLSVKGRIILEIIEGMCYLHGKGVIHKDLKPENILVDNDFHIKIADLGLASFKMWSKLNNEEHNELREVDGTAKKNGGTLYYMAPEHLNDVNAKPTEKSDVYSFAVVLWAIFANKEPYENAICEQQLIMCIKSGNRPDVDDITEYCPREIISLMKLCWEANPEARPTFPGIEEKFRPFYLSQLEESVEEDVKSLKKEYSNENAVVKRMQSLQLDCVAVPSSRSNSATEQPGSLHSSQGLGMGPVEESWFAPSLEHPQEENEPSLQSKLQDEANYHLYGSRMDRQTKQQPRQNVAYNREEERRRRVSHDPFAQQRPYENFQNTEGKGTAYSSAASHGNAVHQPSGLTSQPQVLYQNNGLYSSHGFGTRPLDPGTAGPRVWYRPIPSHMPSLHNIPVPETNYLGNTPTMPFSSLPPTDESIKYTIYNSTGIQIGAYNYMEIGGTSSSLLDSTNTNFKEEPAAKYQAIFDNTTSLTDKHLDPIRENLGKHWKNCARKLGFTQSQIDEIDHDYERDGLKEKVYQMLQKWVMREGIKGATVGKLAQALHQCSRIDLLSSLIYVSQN

Molecular target: RIOK1 (UniProt Q9BRS2)
Experiment: number of time points (of 5) at which kinase-Nluc abundance scored as decreased, DMSO-normalised (count); higher = more persistent destabilization
Settings: K562; 2-18 h

| Compound | number of time points |
| --- | --- |
| O=c1cc(-c2ccc(O[C@@H]3O[C@H](CO)[C@@H](O)[C@H](O)[C@H]3O)cc2)oc2cc(O)c([C@@H]3O[C@H](CO)[C@@H](O)[C@H](O)[C@H]3O[C@@H]3OC[C@H](O)[C@H](O)[C@H]3O)c(O)c12 [Vaccarin] (10 µM) | 0 |
| Nc1ccc(Sc2nc3ccccc3s2)c(Cl)c1 [KRAS inhibitor-9] (10 µM) | 0 |
| COc1ccc2cc1Oc1ccc(cc1)C[C@H]1c3cc(c(OC)cc3CCN1C)Oc1c(O)c(OC)cc3c1[C@H](C2)N(C)CC3 [Fangchinoline] (2.5 µM) | 0 |
| Nc1nccc(Oc2ccc3c(C(=O)Nc4cccc(C(F)(F)F)c4)cccc3c2)n1 (10 µM) | 0 |
| CN1C(=O)N[C@@H](Cc2c[nH]c3c(Cl)cccc23)C1=O [Necrostatin 2 (S enantiomer)] (10 µM) | 0 |
| Cc1ncc(-c2cc(F)c(O)c(F)c2)cc1-c1cc(F)c(O)c(F)c1 (10 µM) | 0 |
| N=C(NC(=N)N1CCCC1)Nc1ccc(OC(F)(F)F)cc1 (10 µM) | 0 |

Some of these compounds in order of count of non-hydrogen atoms, descending.

| Compound | number of time points |
| --- | --- |
| O=c1cc(-c2ccc(O[C@@H]3O[C@H](CO)[C@@H](O)[C@H](O)[C@H]3O)cc2)oc2cc(O)c([C@@H]3O[C@H](CO)[C@@H](O)[C@H](O)[C@H]3O[C@@H]3OC[C@H](O)[C@H](O)[C@H]3O)c(O)c12 [Vaccarin] (10 µM) | 0 |
| COc1ccc2cc1Oc1ccc(cc1)C[C@H]1c3cc(c(OC)cc3CCN1C)Oc1c(O)c(OC)cc3c1[C@H](C2)N(C)CC3 [Fangchinoline] (2.5 µM) | 0 |
| Cc1ncc(-c2cc(F)c(O)c(F)c2)cc1-c1cc(F)c(O)c(F)c1 (10 µM) | 0 |

Molecular target: RIPK1 (UniProt Q13546)
Experiment: as above
Settings: K562; 2-18 h

| Compound | number of time points |
| --- | --- |
| COc1ccc(Br)c(C=O)c1O [6-Bromo-2-hydroxy-3-methoxybenzaldehyde] (10 µM) | 0 |
| O=C1C=CC2=C3c4cc(O)c(O)cc4CC3(O)COC2=C1O (stereo unspecified) [Hematein] (10 µM) | 0 |
| Cc1cccc(CC(=O)N2CCc3c2ccc(-c2cn(C)c4ncnc(N)c24)c3F)n1 (10 µM) | 0 |
| COCCOc1cnc2ccn([C@H](C)c3nnc4c(F)cc(-c5cnn(C)c5)cn34)c(=O)c2c1 (10 µM) | 0 |
| Cn1cc(C2=C(c3ccc(Cl)cc3Cl)C(=O)NC2=O)c2ccccc21 (10 µM) | 0 |
| COc1cc(N2CCC(N3CCN(C)CC3)CC2)ccc1Nc1ncnc(Nc2ccccc2S(=O)(=O)C(C)C)n1 (10 µM) | 0 |
| COc1c(Nc2ncc(Cl)c(N[C@H]3[C@@H](C(N)=O)[C@@H]4C=C[C@H]3C4)n2)ccc2c1CC[C@@H](N1CCOCC1)CC2 (10 µM) | 0 |
| Cc1ccc(NC(=O)N2CCN(c3nc(N)nc4sc(-c5cccnc5)nc34)CC2)cc1 [PI4KIII beta inhibitor 3] (10 µM) | 0 |
| CNc1cc2c(Nc3cccc(Br)c3)ncnc2cn1 (10 µM) | 0 |
| CC(C)n1c(CO)nc2c(F)cc(-c3nc(Nc4ccc(CN5CCNCC5)cn4)ncc3F)cc21 (10 µM) | 3 |
| CN1CCC(Nc2ccc(C(=O)Nc3cc(-c4ccc5c(c4)OCO5)[nH]n3)cc2)CC1 (10 µM) | 0 |
| CNC(=O)CN1CCC(Oc2cc3c(Nc4cccc(Cl)c4F)ncnc3cc2OC)CC1 [Sapitinib] (10 µM) | 0 |
| O=C(O)c1c[nH]c2cc(Cl)c(-c3ccc(C4(O)CCC4)cc3)cc12 (10 µM) | 0 |
| COc1cc(N2CCC(O)CC2)ccc1Nc1nc(Nc2ccccc2S(=O)(=O)C(C)C)c2[nH]cnc2n1 (10 µM) | 0 |
| O=c1c(O)c(-c2ccc(O)c(O)c2)oc2cc(O)c(O)c(O)c12 [Quercetagetin] (10 µM) | 0 |
| Cc1ncsc1-c1ccc(CNC(=O)[C@@H]2C[C@@H](O)CN2C(=O)[C@@H](NC(=O)COCCOc2ccc(-c3cc(Nc4ccc(OC(F)(F)F)cc4)ncn3)cc2)C(C)(C)C)cc1 (2.5 µM) | 3 |
| COc1cc(Nc2ccnc3ccc(Br)cc23)cc(OC)c1OC (2.5 µM) | 0 |
| Cc1ccc2c(NS(=O)(=O)c3ccccc3Cl)cccc2c1Oc1ncccc1-c1ccnc(N[C@H]2CCCNC2)n1 (2.5 µM) | 0 |
| CC(C)c1cc2c(c(O)c1O)[C@@]13CCCC(C)(C)[C@@H]1C[C@@H]2OC3=O [Carnosol] (2.5 µM) | 0 |
| Cc1nc2c(NCc3cccc(S(C)(=O)=O)c3)nccn2c1-c1ccc(O)c(F)c1 (10 µM) | 0 |
| CC(C)n1cnc2c(Nc3cccc(Cl)c3)nc(N[C@H]3CCCC[C@@H]3N)nc21 (2.5 µM) | 0 |
| O=c1cc(N2CCOCC2)oc2c(-c3cccc4c3sc3ccccc34)cccc12 (10 µM) | 0 |
| C[C@@H]1COC(Nc2ccc3ncnc(Nc4ccc(OCc5nccs5)c(Cl)c4)c3c2)=N1 [Varlitinib] (10 µM) | 0 |
| Cc1cncc2cccc(S(=O)(=O)N3CCCNC[C@@H]3C)c12 [H-1152 (dihydrochloride)] (10 µM) | 0 |
